{"source": "PubChem BioAssay AID1259425 (University of Nebraska Medical Center, 2018)", "assay": "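Compare each knockdown with KSR1 silencing using changes in marker transcripts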 (primary screen)", "cell system": "HCT116 human colon cancer cells", "reagent": "siRNA pool against human genes, 50 nM siRNA", "read-out": "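After 50 nM siRNA pool, branched-DNA assay measures six marker transcripts per well, minus blank, normalised to the geometric mean of two housekeeping transcripts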", "reading the numbers": "BNIP3L mRNA: higher = more BNIP3L transcript after knockdown; NDRG1 mRNA: higher = more NDRG1 transcript after knockdown", "note": "Shown is an unselected part of about 14,000 deposited reagents. Not all columns of the deposit are shown. Not stated in the record: the time to read-out."}
{"gene symbol":"PPP1R14B","BNIP3L mRNA, set 1":0.0879,"NDRG1 mRNA, set 1":0.206}
{"gene symbol":"MAPKAPK2","BNIP3L mRNA, set 1":0.0639,"NDRG1 mRNA, set 1":0.219}
{"gene symbol":"ZNF492","BNIP3L mRNA, set 1":0.178,"NDRG1 mRNA, set 1":0.066}
{"gene symbol":"C2CD2","BNIP3L mRNA, set 1":0.0792,"NDRG1 mRNA, set 1":0.116}
{"gene symbol":"TRABD","BNIP3L mRNA, set 1":0.11,"NDRG1 mRNA, set 1":0.118}
{"gene symbol":"EXOSC4","BNIP3L mRNA, set 1":0.117,"NDRG1 mRNA, set 1":0.123}
{"gene symbol":"CEP250","BNIP3L mRNA, set 1":0.14,"NDRG1 mRNA, set 1":0.248}
{"gene symbol":"PLA2G12A","BNIP3L mRNA, set 1":0.185,"NDRG1 mRNA, set 1":0.297}
{"gene symbol":"TBC1D12","BNIP3L mRNA, set 1":0.515,"NDRG1 mRNA, set 1":0.276}
{"gene symbol":"IFI35","BNIP3L mRNA, set 1":0.192,"NDRG1 mRNA, set 1":0.0451}
{"gene symbol":"UCP1","BNIP3L mRNA, set 1":0.116,"NDRG1 mRNA, set 1":0.0867}
{"gene symbol":"WBP1L","BNIP3L mRNA, set 1":0.0842,"NDRG1 mRNA, set 1":1.05}
{"gene symbol":"VTN","BNIP3L mRNA, set 1":0.206,"NDRG1 mRNA, set 1":0.208}

Only “BNIP3L mRNA, set 1”, for 4 of the entries above:
MAPKAPK2 = 0.0639
ZNF492 = 0.178
C2CD2 = 0.0792
TRABD = 0.11

More entries:
{"gene symbol":"PRDM14","BNIP3L mRNA, set 1":0.225,"NDRG1 mRNA, set 1":0.0776}
{"gene symbol":"SUSD4","BNIP3L mRNA, set 1":0.116,"NDRG1 mRNA, set 1":0.562}
{"gene symbol":"CTNND1","BNIP3L mRNA, set 1":0.0429,"NDRG1 mRNA, set 1":0.177}
{"gene symbol":"OAZ2","BNIP3L mRNA, set 1":0.0589,"NDRG1 mRNA, set 1":0.135}
{"gene symbol":"OCEL1","BNIP3L mRNA, set 1":0.104,"NDRG1 mRNA, set 1":0.396}
{"gene symbol":"ACTN1","BNIP3L mRNA, set 1":0.0512,"NDRG1 mRNA, set 1":0.14}
{"gene symbol":"IER5","BNIP3L mRNA, set 1":0.14,"NDRG1 mRNA, set 1":0.0876}
{"gene symbol":"CCL16","BNIP3L mRNA, set 1":0.0931,"NDRG1 mRNA, set 1":0.163}
{"gene symbol":"LHX4","BNIP3L mRNA, set 1":0.099,"NDRG1 mRNA, set 1":0.113}
{"gene symbol":"ASPH","BNIP3L mRNA, set 1":0.0758,"NDRG1 mRNA, set 1":0.26}
{"gene symbol":"MYO16","BNIP3L mRNA, set 1":0.0688,"NDRG1 mRNA, set 1":0.381}
{"gene symbol":"SSR1","BNIP3L mRNA, set 1":0.0599,"NDRG1 mRNA, set 1":0.19}
{"gene symbol":"PRP4K","BNIP3L mRNA, set 1":0.174,"NDRG1 mRNA, set 1":0.173}
{"gene symbol":"SDHC","BNIP3L mRNA, set 1":0.072,"NDRG1 mRNA, set 1":0.129}
{"gene symbol":"SPATS2","BNIP3L mRNA, set 1":0.0714,"NDRG1 mRNA, set 1":0.421}
